This passage reports binding results from paper PMC6488577.

By UniProt entry, the sequences of proteins in these tests, tags left out. Residues count along the entry.
UniProt Q9H1A3, residues 19-318: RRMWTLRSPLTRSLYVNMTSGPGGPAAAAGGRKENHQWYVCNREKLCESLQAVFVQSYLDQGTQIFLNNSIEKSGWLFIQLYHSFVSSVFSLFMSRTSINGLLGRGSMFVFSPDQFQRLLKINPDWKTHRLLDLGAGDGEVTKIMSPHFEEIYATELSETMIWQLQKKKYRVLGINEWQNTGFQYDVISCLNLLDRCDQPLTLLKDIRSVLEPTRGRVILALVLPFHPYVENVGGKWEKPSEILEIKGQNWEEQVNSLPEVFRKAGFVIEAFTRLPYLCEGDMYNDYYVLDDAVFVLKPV

The target of assay [1] is T1, Calnexin precursor (CANX) (human (endogenous in HeLa)) (UniProt P27824).
T1 sequence: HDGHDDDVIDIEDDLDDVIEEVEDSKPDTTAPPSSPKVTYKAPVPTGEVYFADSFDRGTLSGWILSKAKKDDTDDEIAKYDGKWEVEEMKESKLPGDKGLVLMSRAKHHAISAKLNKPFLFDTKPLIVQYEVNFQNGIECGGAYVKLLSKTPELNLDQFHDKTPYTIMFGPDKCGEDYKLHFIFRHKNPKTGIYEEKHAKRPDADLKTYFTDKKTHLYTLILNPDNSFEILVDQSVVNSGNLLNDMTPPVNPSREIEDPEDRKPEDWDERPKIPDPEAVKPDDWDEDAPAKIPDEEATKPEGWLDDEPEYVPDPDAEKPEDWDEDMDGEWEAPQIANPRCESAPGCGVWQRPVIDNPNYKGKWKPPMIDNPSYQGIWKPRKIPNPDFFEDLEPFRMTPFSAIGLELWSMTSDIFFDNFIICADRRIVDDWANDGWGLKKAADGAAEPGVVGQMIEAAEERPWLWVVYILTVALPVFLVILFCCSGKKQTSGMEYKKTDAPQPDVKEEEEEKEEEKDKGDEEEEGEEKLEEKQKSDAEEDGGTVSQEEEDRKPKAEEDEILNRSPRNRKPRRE
The assay is described as follows: co-IP; reverse IP: 10 ug anti-Calnexin antibody, 4 mg whole cell extract; immunoblot with anti-GFP; beads alone as control.

For assay [2], the target named is GFP-METTL9 (human) (UniProt Q9H1A3). The assay is described as follows: co-IP; GFP-METTL9 or GFP precipitated with GFP trap beads from whole cell extract; immunoblot with anti-Calnexin.

These are yes or no findings as the source states them, for the method shown. In cells and extracts the contact can be indirect. Some binding calls cover weakened binding; strength is not graded here.

As to GFP-METTL9 (from UniProt Q9H1A3 19-318), the binding result in assay [1] was “binds”.

B1: Calnexin precursor (CANX) (protein, UniProt P27824 21-592)
chain: HDGHDDDVIDIEDDLDDVIEEVEDSKPDTTAPPSSPKVTYKAPVPTGEVYFADSFDRGTLSGWILSKAKKDDTDDEIAKYDGKWEVEEMKESKLPGDKGLVLMSRAKHHAISAKLNKPFLFDTKPLIVQYEVNFQNGIECGGAYVKLLSKTPELNLDQFHDKTPYTIMFGPDKCGEDYKLHFIFRHKNPKTGIYEEKHAKRPDADLKTYFTDKKTHLYTLILNPDNSFEILVDQSVVNSGNLLNDMTPPVNPSREIEDPEDRKPEDWDERPKIPDPEAVKPDDWDEDAPAKIPDEEATKPEGWLDDEPEYVPDPDAEKPEDWDEDMDGEWEAPQIANPRCESAPGCGVWQRPVIDNPNYKGKWKPPMIDNPSYQGIWKPRKIPNPDFFEDLEPFRMTPFSAIGLELWSMTSDIFFDNFIICADRRIVDDWANDGWGLKKAADGAAEPGVVGQMIEAAEERPWLWVVYILTVALPVFLVILFCCSGKKQTSGMEYKKTDAPQPDVKEEEEEKEEEKDKGDEEEEGEEKLEEKQKSDAEEDGGTVSQEEEDRKPKAEEDEILNRSPRNRKPRRE
As to B1, in assay [2], the binding result is reported as “binds”.
